Source: PMC5385413
These are yes or no findings as the source states them, for the method shown. In cells and extracts the contact can be indirect. Some results given as binding are weak or reduced against the parent protein; the word gives no strength.

Chains of the proteins cited; added tags and fusions are not shown.
UniProt P09382: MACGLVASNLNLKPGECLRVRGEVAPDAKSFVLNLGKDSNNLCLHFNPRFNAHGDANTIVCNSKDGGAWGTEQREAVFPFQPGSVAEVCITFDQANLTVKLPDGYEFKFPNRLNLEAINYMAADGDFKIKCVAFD
UniProt Q05397: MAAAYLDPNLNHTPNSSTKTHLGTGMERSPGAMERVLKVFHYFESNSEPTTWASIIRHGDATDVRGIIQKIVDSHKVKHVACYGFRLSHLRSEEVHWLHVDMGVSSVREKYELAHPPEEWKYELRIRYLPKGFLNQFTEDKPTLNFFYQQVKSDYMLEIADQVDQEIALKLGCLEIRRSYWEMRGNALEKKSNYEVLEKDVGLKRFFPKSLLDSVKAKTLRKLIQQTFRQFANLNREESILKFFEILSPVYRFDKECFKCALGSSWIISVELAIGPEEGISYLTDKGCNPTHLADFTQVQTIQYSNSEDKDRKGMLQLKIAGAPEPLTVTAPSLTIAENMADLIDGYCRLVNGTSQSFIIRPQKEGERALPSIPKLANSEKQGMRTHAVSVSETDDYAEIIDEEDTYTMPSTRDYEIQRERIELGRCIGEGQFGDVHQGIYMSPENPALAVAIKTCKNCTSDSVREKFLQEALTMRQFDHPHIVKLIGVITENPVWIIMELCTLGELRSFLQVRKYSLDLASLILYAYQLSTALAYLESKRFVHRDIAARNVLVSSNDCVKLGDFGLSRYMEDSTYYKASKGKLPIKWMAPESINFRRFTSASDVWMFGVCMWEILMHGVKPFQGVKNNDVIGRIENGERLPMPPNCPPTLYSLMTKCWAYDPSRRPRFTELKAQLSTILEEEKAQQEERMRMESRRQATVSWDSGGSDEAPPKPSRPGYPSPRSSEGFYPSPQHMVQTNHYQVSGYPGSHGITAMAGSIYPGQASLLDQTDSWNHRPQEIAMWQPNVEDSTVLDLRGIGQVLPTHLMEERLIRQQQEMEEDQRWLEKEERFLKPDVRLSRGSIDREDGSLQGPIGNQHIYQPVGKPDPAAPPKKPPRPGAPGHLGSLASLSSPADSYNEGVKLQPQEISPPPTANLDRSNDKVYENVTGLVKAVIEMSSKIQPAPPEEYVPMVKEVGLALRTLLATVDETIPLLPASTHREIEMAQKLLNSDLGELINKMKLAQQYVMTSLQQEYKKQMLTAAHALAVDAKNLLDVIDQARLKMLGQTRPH

Columns and labels:
[1] = target: V5-galectin-1 (UniProt P09382); experiment: co-IP; HEK-293T cells transfected with V5-galectin-1, GFP-FAK1 or both; IP with V5 antibody, immunoblot with GFP antibody
[2] = target: endogenous galectin-1 (human (endogenous in H441)) (UniProt P09382); experiment: proximity ligation; H441 cells on coverslips, fixed with 4% paraformaldehyde; primary antibodies against FAK1 and galectin-1, 2 h at room temperature; no primary antibody as negative control

Row | Substance | binding [1] | binding [2]
1 | GFP-FAK1 (from UniProt Q05397 1-1052) | binds | 
2 | endogenous FAK1 (from UniProt Q05397 1-1052) |  | binds
